# According to article PMC12646653:
# Protein sequences, listed by entry. Tags and fused reporters are not part of them.
# UniProt Q00532: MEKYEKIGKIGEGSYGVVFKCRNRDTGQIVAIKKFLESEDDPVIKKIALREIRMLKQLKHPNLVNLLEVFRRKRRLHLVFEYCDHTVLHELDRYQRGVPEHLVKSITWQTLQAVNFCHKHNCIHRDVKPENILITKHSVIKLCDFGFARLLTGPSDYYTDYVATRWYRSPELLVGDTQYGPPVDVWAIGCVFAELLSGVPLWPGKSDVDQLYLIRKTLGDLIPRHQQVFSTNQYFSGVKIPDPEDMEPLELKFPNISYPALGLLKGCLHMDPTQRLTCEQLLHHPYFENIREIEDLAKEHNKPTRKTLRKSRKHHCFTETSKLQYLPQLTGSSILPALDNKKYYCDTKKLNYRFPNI
# UniProt Q9UG01: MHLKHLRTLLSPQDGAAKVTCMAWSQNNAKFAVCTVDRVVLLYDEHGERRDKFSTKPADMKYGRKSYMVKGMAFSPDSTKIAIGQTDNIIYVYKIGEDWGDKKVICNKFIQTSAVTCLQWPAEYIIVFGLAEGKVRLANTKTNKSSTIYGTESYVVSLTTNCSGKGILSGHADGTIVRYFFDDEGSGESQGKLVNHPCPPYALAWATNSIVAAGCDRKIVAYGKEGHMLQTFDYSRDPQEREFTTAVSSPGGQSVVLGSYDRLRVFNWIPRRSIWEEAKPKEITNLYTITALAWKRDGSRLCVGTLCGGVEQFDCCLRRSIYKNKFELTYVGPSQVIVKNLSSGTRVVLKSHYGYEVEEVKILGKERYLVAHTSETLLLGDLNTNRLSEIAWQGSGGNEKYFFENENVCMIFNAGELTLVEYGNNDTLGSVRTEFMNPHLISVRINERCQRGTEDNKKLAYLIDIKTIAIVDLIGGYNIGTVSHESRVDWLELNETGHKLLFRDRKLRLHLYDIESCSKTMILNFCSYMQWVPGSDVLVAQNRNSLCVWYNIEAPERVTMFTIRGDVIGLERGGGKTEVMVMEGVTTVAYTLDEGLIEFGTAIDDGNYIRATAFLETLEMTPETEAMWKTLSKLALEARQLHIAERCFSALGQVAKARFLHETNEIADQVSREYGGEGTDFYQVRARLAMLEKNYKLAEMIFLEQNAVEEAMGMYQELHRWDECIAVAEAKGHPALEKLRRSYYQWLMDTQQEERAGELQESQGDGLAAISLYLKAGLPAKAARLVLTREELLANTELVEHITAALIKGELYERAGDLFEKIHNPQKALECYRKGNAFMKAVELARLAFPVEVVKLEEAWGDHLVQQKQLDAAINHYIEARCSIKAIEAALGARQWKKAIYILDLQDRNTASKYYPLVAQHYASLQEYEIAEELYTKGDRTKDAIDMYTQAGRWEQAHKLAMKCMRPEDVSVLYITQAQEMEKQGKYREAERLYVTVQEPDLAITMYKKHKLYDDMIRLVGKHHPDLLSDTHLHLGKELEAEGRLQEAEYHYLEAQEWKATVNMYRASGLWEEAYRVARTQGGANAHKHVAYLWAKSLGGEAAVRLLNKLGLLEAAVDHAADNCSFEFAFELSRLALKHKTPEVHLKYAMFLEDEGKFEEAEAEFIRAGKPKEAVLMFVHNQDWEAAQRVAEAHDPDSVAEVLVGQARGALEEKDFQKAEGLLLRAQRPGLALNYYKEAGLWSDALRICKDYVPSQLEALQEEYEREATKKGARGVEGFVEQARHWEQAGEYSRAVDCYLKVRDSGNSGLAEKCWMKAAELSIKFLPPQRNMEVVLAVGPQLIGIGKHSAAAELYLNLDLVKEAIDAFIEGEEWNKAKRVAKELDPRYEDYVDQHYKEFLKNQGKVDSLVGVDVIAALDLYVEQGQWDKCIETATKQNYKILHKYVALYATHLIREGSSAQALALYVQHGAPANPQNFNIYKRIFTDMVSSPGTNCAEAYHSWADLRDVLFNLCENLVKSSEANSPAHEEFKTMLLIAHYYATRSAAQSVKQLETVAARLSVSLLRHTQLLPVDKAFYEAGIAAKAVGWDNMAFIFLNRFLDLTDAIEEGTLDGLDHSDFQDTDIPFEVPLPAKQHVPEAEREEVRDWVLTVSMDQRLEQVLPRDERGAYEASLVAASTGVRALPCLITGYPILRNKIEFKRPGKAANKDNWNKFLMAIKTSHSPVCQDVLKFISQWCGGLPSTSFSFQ
# These are yes or no findings as the source states them, for the method shown. Binding seen in cells or lysates may run through a third protein. Some entries that bind do so weakly or less than the wild type.
# Biological target: CDKL1 wild-type (cyclin-dependent kinase-like 1), EGFP-tagged (human) (UniProt Q00532)
# Test: co-IP; total lysates of HEK293T cells expressing EGFP-tagged CDKL1 variants or EGFP; IP with GFP-Trap beads; endogenous IFT52, IFT172, CFAP20 and TUBA1A detected by immunoblot; n = 3
row,Molecule,binding
1,IFT172 (from UniProt Q9UG01 1-1749),binds
2,"IFT52 (protein, UniProt Q9Y366 1-437) MEKELRSTILFNAYKKEIFTTNNGYKSMQKKLRSNWKIQSLKDEITSEKLNGVKLWITAGPREKFTAAEFEILKKYLDTGGDVFVMLGEGGESRFDTNINFLLEEYGIMVNNDAVVRNVYHKYFHPKEALVSSGVLNREISRAAGKAVPGIIDEESSGNNAQALTFVYPFGATLSVMKPAVAVLSTGSVCFPLNRPILAFYHSKNQGGKLAVLGSCHMFSDQYLDKEENSKIMDVVFQWLTTGDIHLNQIDAEDPEISDYMMLPYTATLSKRNRECLQESDEIPRDFTTLFDLSIFQLDTTSFHSVIEAHEQLNVKHEPLQLIQPQFETPLPTLQPAVFPPSFRELPPPPLELFDLDETFSSEKARLAQITNKCTEEDLEFYVRKCGDILGVTSKLPKDQQDAKHILEHVFFQVVEFKKLNQEHDIDTSETAFQNNF",binds
3,"CFAP20 (protein, UniProt Q9Y6A4 1-193) MFKNTFQSGFLSILYSIGSKPLQIWDKKVRNGHIKRITDNDIQSLVLEIEGTNVSTTYITCPADPKKTLGIKLPFLVMIIKNLKKYFTFEVQVLDDKNVRRRFRASNYQSTTRVKPFICTMPMRLDDGWNQIQFNLLDFTRRAYGTNYIETLRVQIHANCRIRRVYFSDRLYSEDELPAEFKLYLPVQNKAKQ",binds
